Assay results taken from patent US20150238483A1, “Traitement des neuronopathies motrices” (CENTRE NATIONAL DE LA RECHERCHE SCIENTIFIQUE- CNRS, priority 2012, published 2015).
Counter-ions that a name gives are not always drawn.

Tested on: immortalized SMA fibroblasts
Assay: Distribution of the SMN protein to Cajal bodies (CBs) in immortalized SMA fibroblasts, immunolabeling, cells counted
Format: cell-based, human
Details: compounds diluted to 1/1000 compared with examples 1 and 2; FIG. 1
Description: This immortalization is described in the publication Lefebvre S, Burlet P, Viollet L, Bertrandy S, Huber C, Belser C and Munnich A. A novel association of the SMN protein with major non-ribosomal nucleolar proteins and its implication in spinal muscular atrophy. Hum Mol Genet (2002) 11 (9): 1017-1027.
The blockers of the invention are commercially available (for example from Sigma-Aldrich) and are sold in 96-well plates, at 2 milligrams per molecule per well to be dissolved in 1 ml of DMSO.
In order to determine whether the calcium channel blockers exerted a positive effect, the inventors counted the cells which had the SMN protein located in the CBs out of 100 cells randomly selected for each experiment.
This experiment was repeated three times.
A value of induction by a factor equal to 1 was arbitrarily assigned to DMSO.
In order to evaluate the relationship between the concentration (dose) and the effect (response) on the CBs of the immortalized SMA cells, the inventors constructed a dose-response curve for each of the molecules.

CCCCc1oc2ccccc2c1C(=O)c1cc(I)c(OCCN(CC)CC)c(I)c1 [Amiodarone hydrochloride, (2-butyl-3-benzofuranyl)[4-[2-(diethylamino)ethoxy]-3,5-diiodophenyl]methanone hydrochloride]
induction factor of SMN protein distribution to CBs (DMSO = 1): 1
